The results are deposited in PubChem (AID504749; NCATS, 2011).

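Malaria parasite (P. falciparum) lines kept in red blood cells; parasite DNA is measured by SYBR Green fluorescence after lysis, 72 h after compound addition. Each compound was titrated across a series from about 0.000037 to 29 µM. The number is the fitted AC50, the concentration giving a half-maximal change in signal; a lower value means higher potency, whether the curve shows a decrease or an increase. Calls follow the curve class and fit quality: every row here is inconclusive, covering signal-raising curves and weak, poorly fitted, partial or highest-dose-only inhibition curves.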

Values are in µM. All entries here are filed as inconclusive. Only part of the assay is shown, chiefly results filed as inconclusive. Potencies fitted to partial, single-point or poorly fitting curves are rough. Some entries filed as inconclusive have a full curve.

SMILES: C[C@]12CCC(=O)C=C1CC[C@@H]1[C@@H]2CC[C@]2(C)C(=O)CC[C@@H]12
setting: PAD
Potency (µM): 0.004
remark: inhibitor, full curve

SMILES: C[C@]12CCC(=O)C=C1CC[C@@H]1[C@@H]2CC[C@]2(C)C(=O)CC[C@@H]12
setting: DIV17
Potency (µM): 15.1
remark: inhibitor, partial curve, poor fit

SMILES: Cc1ccccc1OCC(O)CNCCOc1ccc(C(N)=O)cc1 (centres unmarked)
setting: GB4
Potency (µM): 19.01
remark: inhibitor, partial curve, poor fit

SMILES: Cc1ccccc1OCC(O)CNCCOc1ccc(C(N)=O)cc1 (centres unmarked)
setting: DIV17
Potency (µM): 13.46
remark: inhibitor, partial curve, poor fit

SMILES: OC(C#CCN1CCCC1)(c1ccccc1)c1ccccc1
setting: TAB113
Potency (µM): 12.59
remark: inhibitor, single point

SMILES: OC(C#CCN1CCCC1)(c1ccccc1)c1ccccc1
setting: parasite line A
Potency (µM): 0.5012
remark: inhibitor, full curve, poor fit

SMILES: OC(C#CCN1CCCC1)(c1ccccc1)c1ccccc1
setting: PAD
Potency (µM): 4.467
remark: inhibitor, partial curve, poor fit

SMILES: OC(C#CCN1CCCC1)(c1ccccc1)c1ccccc1
setting: CP325
Potency (µM): 0.4775
remark: inhibitor, full curve, poor fit

SMILES: OC(C#CCN1CCCC1)(c1ccccc1)c1ccccc1
setting: CP250
Potency (µM): 17.78
remark: inhibitor, single point

SMILES: OC(C#CCN1CCCC1)(c1ccccc1)c1ccccc1
setting: CP185
Potency (µM): 8.912
remark: inhibitor, partial curve

SMILES: OC(C#CCN1CCCC1)(c1ccccc1)c1ccccc1
setting: CP329
Potency (µM): 12
remark: inhibitor, partial curve

SMILES: OC(C#CCN1CCCC1)(c1ccccc1)c1ccccc1
setting: PC26
Potency (µM): 6.746
remark: inhibitor, partial curve

SMILES: OC(C#CCN1CCCC1)(c1ccccc1)c1ccccc1
setting: PC49
Potency (µM): 5.012
remark: inhibitor, partial curve

SMILES: OC(C#CCN1CCCC1)(c1ccccc1)c1ccccc1
setting: CP265
Potency (µM): 10
remark: inhibitor, partial curve

SMILES: OC(C#CCN1CCCC1)(c1ccccc1)c1ccccc1
setting: ICS
Potency (µM): 11.22
remark: inhibitor, partial curve

SMILES: OC(C#CCN1CCCC1)(c1ccccc1)c1ccccc1
setting: CP256
Potency (µM): 8.912
remark: inhibitor, single point

SMILES: OC(C#CCN1CCCC1)(c1ccccc1)c1ccccc1
setting: DFO2036
Potency (µM): 11.22
remark: inhibitor, partial curve

SMILES: OC(C#CCN1CCCC1)(c1ccccc1)c1ccccc1
setting: AS120
Potency (µM): 11.22
remark: inhibitor, partial curve

SMILES: OC(C#CCN1CCCC1)(c1ccccc1)c1ccccc1
setting: SC27B
Potency (µM): 11.22
remark: inhibitor, single point

SMILES: OC(C#CCN1CCCC1)(c1ccccc1)c1ccccc1
setting: CP252
Potency (µM): 17.78
remark: inhibitor, single point

SMILES: OC(C#CCN1CCCC1)(c1ccccc1)c1ccccc1
setting: CP269
Potency (µM): 15.1
remark: inhibitor, single point

SMILES: OC(C#CCN1CCCC1)(c1ccccc1)c1ccccc1
setting: CP286
Potency (µM): 8.912
remark: inhibitor, partial curve

SMILES: OC(C#CCN1CCCC1)(c1ccccc1)c1ccccc1
setting: CP215
Potency (µM): 21.33
remark: inhibitor, single point

SMILES: OC(C#CCN1CCCC1)(c1ccccc1)c1ccccc1
setting: CP217
Potency (µM): 10
remark: inhibitor, single point

SMILES: OC(C#CCN1CCCC1)(c1ccccc1)c1ccccc1
setting: CP238
Potency (µM): 10
remark: inhibitor, single point

SMILES: c1ccc(CNCCNCc2ccccc2)cc1
setting: CP211
Potency (µM): 0.0601
remark: inhibitor, full curve, poor fit

SMILES: c1ccc(CNCCNCc2ccccc2)cc1
setting: CP185
Potency (µM): 4.467
remark: inhibitor, partial curve

SMILES: c1ccc(CNCCNCc2ccccc2)cc1
setting: DFO2036
Potency (µM): 11.22
remark: inhibitor, partial curve

SMILES: c1ccc(CNCCNCc2ccccc2)cc1
setting: N140
Potency (µM): 12.59
remark: inhibitor, partial curve

SMILES: c1ccc(CNCCNCc2ccccc2)cc1
setting: C2A
Potency (µM): 11.22
remark: inhibitor, single point

SMILES: c1ccc(CNCCNCc2ccccc2)cc1
setting: CP238
Potency (µM): 10
remark: inhibitor, single point

SMILES: c1ccc(CNCCNCc2ccccc2)cc1
setting: PAD
Potency (µM): 4.467
remark: inhibitor, partial curve

SMILES: c1ccc(CNCCNCc2ccccc2)cc1
setting: CP265
Potency (µM): 12.59
remark: inhibitor, single point

SMILES: c1ccc(CNCCNCc2ccccc2)cc1
setting: CP325
Potency (µM): 6.746
remark: inhibitor, partial curve, poor fit

SMILES: c1ccc(CNCCNCc2ccccc2)cc1
setting: TAB165
Potency (µM): 14.13
remark: inhibitor, partial curve

Once more, the final 3:

With c1ccc(CNCCNCc2ccccc2)cc1 [CP265] the assay gave Potency 12.59 µM (inhibitor, single point).
With c1ccc(CNCCNCc2ccccc2)cc1 [CP325] the assay gave Potency 6.746 µM (inhibitor, partial curve, poor fit).
With c1ccc(CNCCNCc2ccccc2)cc1 [TAB165] the assay gave Potency 14.13 µM (inhibitor, partial curve).